Results are given in words; binding and its absence hold for the method and conditions named. Binding seen in cells or lysates may run through a third protein. Binding calls can cover weak binding; strength is not graded here. Tags and fused reporters may be left off the sequences shown. Each block holds one molecule with its values, some of them ahead of it.
Assays:
PCDH19-FLAG (mouse) = biological target: T1, PCDH19-FLAG (mouse) (UniProt Q80TF3); experiment: co-IP; HEK293T cells co-transfected with differently tagged proteins, harvested 24 h after transfection; lysis buffer 50 mM Tris-HCl pH 7.5, 150 mM NaCl, 0.2% Triton X-100, 2 mM EDTA, 0.01% SDS; IP with anti-FLAG M2 or anti-HA agarose beads; western blot
T1 sequence: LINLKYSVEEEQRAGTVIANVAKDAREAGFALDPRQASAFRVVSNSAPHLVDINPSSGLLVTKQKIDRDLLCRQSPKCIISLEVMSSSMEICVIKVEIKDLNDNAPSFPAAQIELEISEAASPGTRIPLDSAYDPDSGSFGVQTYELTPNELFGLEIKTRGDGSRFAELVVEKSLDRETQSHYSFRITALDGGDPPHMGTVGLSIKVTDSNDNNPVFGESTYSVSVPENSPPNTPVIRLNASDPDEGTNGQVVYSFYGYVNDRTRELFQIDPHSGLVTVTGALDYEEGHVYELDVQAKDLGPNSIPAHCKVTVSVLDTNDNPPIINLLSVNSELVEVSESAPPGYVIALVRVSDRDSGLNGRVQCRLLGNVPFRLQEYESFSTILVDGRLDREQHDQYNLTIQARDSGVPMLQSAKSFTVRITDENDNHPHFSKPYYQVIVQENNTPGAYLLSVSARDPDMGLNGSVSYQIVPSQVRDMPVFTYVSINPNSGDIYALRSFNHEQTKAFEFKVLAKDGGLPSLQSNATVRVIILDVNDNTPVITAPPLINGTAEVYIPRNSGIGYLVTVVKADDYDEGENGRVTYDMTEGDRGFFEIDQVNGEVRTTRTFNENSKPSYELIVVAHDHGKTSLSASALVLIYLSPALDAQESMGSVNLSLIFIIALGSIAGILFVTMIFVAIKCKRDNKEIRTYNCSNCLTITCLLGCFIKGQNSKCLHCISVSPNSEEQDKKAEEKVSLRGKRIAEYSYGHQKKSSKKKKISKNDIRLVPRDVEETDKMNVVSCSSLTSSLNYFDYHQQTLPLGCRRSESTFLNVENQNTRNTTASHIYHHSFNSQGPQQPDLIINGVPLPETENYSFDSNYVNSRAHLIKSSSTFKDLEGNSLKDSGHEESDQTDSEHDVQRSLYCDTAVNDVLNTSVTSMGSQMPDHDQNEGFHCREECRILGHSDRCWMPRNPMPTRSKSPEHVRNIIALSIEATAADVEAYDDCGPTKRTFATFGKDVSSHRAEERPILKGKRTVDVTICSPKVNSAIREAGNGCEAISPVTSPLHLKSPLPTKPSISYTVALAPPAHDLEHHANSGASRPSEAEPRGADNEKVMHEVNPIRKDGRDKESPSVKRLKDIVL

PCDH9-HA (mouse) = experiment: as above

- binding (PCDH19-FLAG (mouse)): binds
Molecule: PCDH1-MYC (mouse)

- binding (PCDH9-HA (mouse)): binds
B1: PCDH19-FLAG (protein, UniProt Q80TF3 22-1145)
chain: T1 sequence
